These are yes or no findings as the source states them, for the method shown. Some results given as binding are weak or reduced against the parent protein; the word gives no strength.
Target: T1, 人C-反应蛋白 (human C-reactive protein, extracted from human plasma, HyTest) (human) (UniProt P02741)
T1 sequence (looked up): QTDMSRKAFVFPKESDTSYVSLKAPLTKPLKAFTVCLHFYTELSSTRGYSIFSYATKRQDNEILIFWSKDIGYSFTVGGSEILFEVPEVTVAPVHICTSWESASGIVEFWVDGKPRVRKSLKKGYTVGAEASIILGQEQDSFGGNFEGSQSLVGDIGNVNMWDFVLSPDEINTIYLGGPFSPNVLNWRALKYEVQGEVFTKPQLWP
Test: indirect ELISA, hybridoma supernatant on plate-coated CRP (1 ug/mL), HRP goat anti-mouse IgG, OD450

B1: 杂交瘤细胞株M20的抗体 (antibody of hybridoma cell line M20) (antibody, V domains shown)
VH: EVMLVESGGGLVKPGGSLKLSCAASGFTFSSYAMSWVRQTPERRLEWVATISTSGSDRYYPDSVKWRFTISRDSAKNILYLQMSSLRSEDTAMYYCARRGWDYWGQGTSVTVSA
VL: DVVMTQTPLSLPVSLGDQASISCRSSQSLVHSNGNTYLHWYLQKSGQSPKLLLYKVSNRFSGVSDRFSGSGSGTDFTLKISRVEAEDLGVYFCSQNTHVPPTFGGGTKLEIK
- binding: binds

From patent publication CN106699884A
